Measurements from “University of Dundee, Small-Polar-MMV Screening Library” (2021), ChEMBL document CHEMBL3988442.

Mtb cholesterol medium: 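Phenotypic screen: M. tuberculosis growth, cholesterol and DPPC medium, 4 days; the read-out is not stated. Concentration: 50 µM. Direction is inferred from retests: higher values go with more growth inhibition. About 69,000 compounds were tested under these conditions; 0.54% (about 370) showed 50% or more at least once.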
Mtb glucose medium: 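Phenotypic screen: M. tuberculosis growth, glucose 7H9 medium, 3 days; the read-out is not stated. Compounds at 50 µM. The record gives no direction; compounds that gave an IC50 in retests scored well above the rest, so higher reads as more growth inhibition. Size under these conditions: about 69,000 compounds, about 760 of them at 50% or above in at least one test.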

Results are given as percent effect.
How 0% and 100% were set is not recorded. Most values in the screen are low, and negative values occur.
The compounds are a random part of those screened.
Two or more numbers in one place are separate tests of the same structure; such repeats can differ widely.

| Compound | Mtb cholesterol medium | Mtb glucose medium |
|---|---|---|
| `CCC[C@@H](NC(N)=O)C(=O)N1CCc2c(Cl)cccc2C1` | -4.321% | -1.926% |
| `O=C(C[S+]([O-])Cc1ccc(Cl)cc1Cl)N1CCc2sccc2C1` (stereo unspecified) | -8.541% | 9.801% |
| `O=C(O)C(F)(F)F.[H][C@@]12OCCC[C@]1([H])N(C(=O)c1cnccn1)C[C@H]2OCc1ccncc1` | -32.99% | -21% |
| `COc1ccc2c(c1)CN(c1cc(N3CCCC3CO)ncn1)CC2` (stereo unspecified) | 28.76% | 55.04% |
| `N#Cc1ccc(N2CCCN(CC(=O)N3CCOCC3)CC2)cc1` | -5.528% | -3.595% |
| `CC(C)N(C)Cc1cc(=O)n2c(n1)CN(S(=O)(=O)C1CC1)CCC2.O=C(O)C(F)(F)F` | 20.69% | 19.64% |
| `Cc1nc(NC2CCN(C(=O)C3CC3)CC2)c2cnn(C)c2n1` | 3.188% | 5.105% |
| `O=C(O)C(F)(F)F.[H][C@]12CN(CC)C[C@@]1(C(=O)O)CCCN(C(=O)NCc1ccccc1)C2` | 6.33% | -4.613% and -12.58% |
| `O=C(O)C(F)(F)F.O=C(O)C(F)(F)F.[H][C@@]12CCC(=O)N(c3cnn(C)c3)[C@]1([H])CCN2Cc1cccc(C#N)c1` | -9.389% | 11.08% |
| `COCc1csc(NC(=O)NCc2ccsc2)n1` | -5.042% | 6.932% and 23.21% |
| `COCCSc1ccc(-n2cccn2)nn1` | 0.9996% | 0.1755% |
| `O=C(Cc1cn2ccsc2n1)N(Cc1ccco1)CC1CCCO1` (stereo unspecified) | -11% | -28.06% |
| `[H][C@@]12CCCO[C@]1([H])[C@@H](Oc1cccnc1)CN2C(=O)c1ccnnc1` | 2.803% and 3.912% | -24.48% |
| `CCOCc1nccc(-c2ccc(OCC)c(C(=O)O)c2)n1` | -9.109% | -14.61% |
| `CCc1c(C)nc2cc(C3CCN(Cc4ccncc4C)C3)nn2c1O` (stereo unspecified) | -11.69% | -4.273% |
| `Cc1c(S(=O)(=O)NCC(C)C)cnn1C` | 0.7987% | -12.19% |
| `Cc1nn(C)c(N2CCOCC2)c1CNC(C)c1cccnc1` (stereo unspecified) | 8.887% | 19.35% and -2.602% |
| `CCN(CC1CCCN(CCc2cccc(OC)c2)C1)C(=O)CCSC` (stereo unspecified) | -17.98% and -9.065% | 19.66% |
| `CC(C)NC(=O)NC(=O)C(C)N1CCN(C2CCN(C(C)C)CC2)CC1` (stereo unspecified) | 6.626% | -15.78% and 10.79% |
| `CC(Cc1ccsc1)NC(=O)c1cc(N2CCNC2=O)ccc1F` (stereo unspecified) | -2.672% | -11.64% |
| `O=C(CCN1CCOC(Cn2cccn2)C1)NC1CCCCC1` (stereo unspecified) | -8.587% | -30.05% |
| `CCc1ccc(CN(Cc2ccccc2)CC(C)CO)nc1` (stereo unspecified) | 27.73% | 11.13% and 17.93% |
| `O=C(O)C(F)(F)F.[H][C@@]12CN(CC3CCC3)C[C@]1([H])OCCN2c1cnccn1` | 6.332% | 9.427% |
| `CC(C)[C@H]1CN(Cc2ccncc2)C[C@@H]1NC(=O)C1(C#N)CCOCC1` | -2.129% | 5.626% |
| `CC(C)CNC(=O)CNc1c(NCc2ccco2)c(=O)c1=O` | -7.273% | 5.443% |
| `CCC1=NC(SCC(=O)c2ccc(Cl)cc2)c2cc(CC)sc2N1` (stereo unspecified) | -5.784% | -5.276% |
| `O=C(O)CC(NC(=O)c1ccccc1OC(F)F)c1cccs1` (stereo unspecified) | -14.55% | 10.62% |
| `O=C(NC[C@]1(O)CN(Cc2ccccc2F)C[C@H]1O)c1cscn1` | 1.863% | 7.648% |
| `Cn1cnnc1SCc1cc2c(cc1Cl)OCO2` | -9.808% | -9.124% |
| `CCN(Cc1cccc2c1OCO2)C(=O)Nc1ccccn1` | -3.268% | -1.801% |
| `COc1ccccc1CC1CCCN(CC(=O)NC2CC2)C1` (stereo unspecified) | 11.68% | 3.827% |
| `CCn1nc2ccc(S(=O)(=O)N3CCSCC3)cn2c1=O` | -24.88% | -18.09% and -6.627% |
| `F[C@@H]1CN(CC2CC2)C[C@@H]1OCc1nc2ccccc2[nH]1` | -20.57% | -6.386% and -6.95% |
| `O=C(CC1CN(Cc2ccccc2)CCO1)Nc1ccsc1` (stereo unspecified) | -7.869% | 21.87% |
| `CCN(Cc1cnn(C)c1)C(=O)c1ccc(C)c(N2CCNC2=O)c1` | 12.63% | 13.95% |
| `CC(C)CSCCCNC(=O)C1CCC1` | -2.966% | -10.33% |
| `[H][C@@]12CN(C(=O)CC3CC3)C[C@]1([H])C(=O)N(CC1CC1)C2` | 0.01254% | -12.63% |
| `O=C(O)C(F)(F)F.[H][C@@]12COC[C@]1([H])[C@H](OCc1csc(C)n1)CN2Cc1ccsc1` | 14.42% | -13.1% |
| `O=C(O)C(F)(F)F.[H][C@@]12C[C@H](C(=O)N3CCCCO3)CN(Cc3ccoc3)[C@]1([H])CCO2` | -12.96% and 21.6% | 11.08% |
| `CC1CCc2c(c3ccccc3[nH]c2=O)O1` (stereo unspecified) | 6.491% | 0.6907% and 28.57% |
| `CN(c1ccncn1)C1CC2(CCN(C(=O)c3cccn3C)C2)C1` (stereo unspecified) | 5.736% | 41.51% |
| `[H][C@]12CCN(C(=O)COC)[C@@]1([H])CC[C@H](COCc1csc(C)n1)O2` | -15.46% | -15.47% |
| `COc1ccc(-c2nnc(SCC(=O)NCC(C)C)[nH]2)c(OC)c1` | -0.6613% | 23.81% and -4.569% |
| `CCn1ncc2c1C(COC)N(C(=O)CCc1ccccc1)CC2.O=C(O)C(F)(F)F` (stereo unspecified) | -13.74% | -26.3% |
| `CCN(Cc1cccc(NC(=O)COC)c1)C(C)=O` | -15.32% | -8.788% |
| `CN(Cc1cn2c(n1)CN(C(=O)C1CCOCC1)CC2)Cc1ccco1` | -6.864% and 1.26% | -14.22% and -7.847% |
| `CC(C)CN1CCC(c2nnc(CN3CCCC3)n2C2CC2)CC1` | 2.521% | 19.39% |
| `CCS(=O)(=O)N1CCc2ccc(NC(=O)Nc3cccc(SC)c3)cc21` | 15.6% | 20.78% |
| `CCC1CCCCCN1C(=O)c1nnc2ccccc2c1N` (stereo unspecified) | 0.729% | -1.936% and -15.22% |
| `CCCN1CCc2[nH]nc(C(=O)N3CCNC(=O)C3)c2C1.O=C(O)C(F)(F)F.O=C(O)C(F)(F)F` | 15.07% | 0.8126% and 5.371% |
| `COc1c(CNCc2cccnc2N2CCOCC2)c(C)nn1C` | -9.022% | -15.19% |
| `Cc1noc(C2CCN(C(=O)c3cccs3)CC2)n1` | 21.01% | 23.3% |
| `[H][C@]12CN(C(C)C)CCN1C(=O)N(C1CCCCC1)C2` | 11.7% | 3.668% and 18.32% |
| `Cc1nc[nH]c1CN1CCCN(c2nc3ccccc3s2)CC1` | -15.5% | 14.55% |
| `CCC(C#N)NC(=O)c1cc(Br)c2c(c1)OCCO2` (stereo unspecified) | 3.673% | -4.134% |
| `O=S(=O)(CC1CCCCC1)NCc1ccnc(O)c1` | 9.41% | 20.3% |
| `Cc1nc(CN2CCCCC2CCc2ccc(O)cc2)co1` (stereo unspecified) | 9.639% | 16.32% |
| `Cc1noc(-c2cccnc2N2CCOC(C)(c3cnn(C)c3)C2)n1` (stereo unspecified) | 15.01% | 14.03% |
| `Cc1cc(C(=O)NCC2OCCc3cn(CC4CC4)nc32)c(C)[nH]1` (stereo unspecified) | 12.97% | 41.01% |
| `Cc1ccc(CN2CCOCC2c2[nH]ncc2C)cn1` (stereo unspecified) | 10.52% and 9.513% | 1.596% |
| `O=C(CCCN1CCOCC1)N1CCCC(CO)(CC2CC2)C1` (stereo unspecified) | 13.1% | -20.83% and -0.2161% |
| `Cc1cncc(C2CCN(C(=O)CCc3ccnn3C)CC2)n1` | -29.36% | -3.799% |
| `CC(O)CN1CCN(C(=O)c2cccc(CC#N)c2)CC1` (stereo unspecified) | -6.089% | -6.941% |
| `CN(CCOc1ccccc1F)C1CCOC1=O` (stereo unspecified) | -3.521% | -1.328% |
| `Cn1cc(C(=O)NCC2CCN(C(=O)NC3CCCCC3)CC2)cn1` | 4.769% | -12.37% |
| `[H][C@]12CC[C@]([H])(CN(c3nccc(C)n3)C1)N(CC1CCC1)C2=O` | 2.241% and 16.08% | -11.21% |
| `O=C(c1ccc(F)c(F)c1)N1CCN2CCCC2C1` (stereo unspecified) | 14.31% | 5.73% |
| `c1cnn(CC2CCN(c3nc(C4CC4)nc4c3CCNCC4)CC2)c1` | 7.987% and 0.9587% | 12.63% |
| `O=C(CCS(=O)(=O)C1CCCC1)NCCc1ccc2c(c1)OCCO2` | -10.51% | 34.96% |
| `Cc1ccsc1C(=O)Nc1cc(Br)c(=O)n(C)c1` | 16.56% | 34.1% |
| `Cc1cccc(-c2noc(C)c2C(=O)NC2CCCOC2)c1.O=C(O)CC(O)(CC(=O)O)C(=O)O` (stereo unspecified) | -5.471% and -4.758% | -26.83% |
| `CN(Cc1ccncc1)C(=O)CCNS(=O)(=O)c1cccnc1` | -3.756% and -8.542% | -3.713% |
| `CCC(C)NS(=O)(=O)c1ccc(C(=O)NC2(C#N)CCC2)cc1` (stereo unspecified) | -10.4% | 4.665% |